{"sequences": {"note": "Chains of the proteins cited; added tags and fusions are not shown.", "UniProt P53350, whole entry, looked up": "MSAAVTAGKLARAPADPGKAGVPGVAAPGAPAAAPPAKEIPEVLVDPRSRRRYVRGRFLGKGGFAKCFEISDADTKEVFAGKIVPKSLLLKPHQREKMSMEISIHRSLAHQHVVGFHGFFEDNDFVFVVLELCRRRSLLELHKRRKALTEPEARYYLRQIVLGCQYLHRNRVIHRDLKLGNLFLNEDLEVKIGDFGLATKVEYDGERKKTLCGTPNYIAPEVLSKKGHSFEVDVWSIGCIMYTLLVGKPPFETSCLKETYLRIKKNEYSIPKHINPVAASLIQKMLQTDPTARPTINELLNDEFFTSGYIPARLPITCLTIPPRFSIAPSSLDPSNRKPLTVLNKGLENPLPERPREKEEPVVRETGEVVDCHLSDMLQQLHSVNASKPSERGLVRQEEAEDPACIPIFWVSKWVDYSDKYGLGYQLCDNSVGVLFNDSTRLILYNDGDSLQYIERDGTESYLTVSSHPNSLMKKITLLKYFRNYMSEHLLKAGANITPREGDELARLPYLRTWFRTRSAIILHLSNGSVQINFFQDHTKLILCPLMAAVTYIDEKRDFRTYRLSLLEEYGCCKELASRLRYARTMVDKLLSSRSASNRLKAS"}, "source": "PubChem BioAssay AID720504", "about": "(National Center for Advancing Translational Sciences (NCATS), 2013)", "note": "The whole screen tested about 360,000 compounds, of which about 10,000 (2.8%) were called active. Inconclusive means that the source gave no clear call. Such entries were picked first, then a sample of the others. Calls follow the shape of the dose curve; as a rule, active = well fitted inhibition curve with a large enough effect; inconclusive = small, poorly fitted or top-dose-only effect; inactive = flat fitted curve, though single readings scatter. Potencies of inconclusive entries are doubtful fits and often do not repeat. % is scaled to controls: 0 for no effect and ±100 for the full control effect; potency is read from the fitted curve at half-maximal effect.", "data": [{"target": "Serine/threonine-protein kinase PLK1 (Homo sapiens) (UniProt P53350)", "test": "qHTS for Inhibitors of PLK1-PDB (polo-like kinase 1 - polo-box domain): Primary Screen; also: nearly all actives have a fitted effect of over 65% in size; as to max response, negative = inhibition: series mostly up to about 57 µM", "settings": "Plk1 PBD binding of FITC phosphopeptide, fluorescence polarization", "values": [{"smiles": "Cc1ccc(S(=O)(=O)/N=C/c2c(O)ccc3ccccc23)cc1", "Potency": "active: 29.9 µM"}, {"smiles": "CC(C)c1ccccc1OCCCCCNCCO", "max response, negative = inhibition": "inactive: -1.98%"}, {"smiles": "Cc1ccc(S(=O)(=O)NN=Cc2ccc(N3CCOCC3)cc2)cc1[N+](=O)[O-]", "Potency": "inconclusive: 29.9 µM [inhibitor, single point]"}, {"smiles": "Cc1ccc(S(=O)(=O)N(CC(=O)Nc2ccccc2C(=O)O)c2cccc(Cl)c2C)cc1", "Potency": "active: 29.9 µM"}, {"smiles": "NS(=O)(=O)c1cccc(NC(=O)COC(=O)c2cc(Cl)ccc2[N+](=O)[O-])c1", "Potency": "inconclusive: 29.9 µM [inhibitor, partial curve]"}, {"smiles": "COc1ccc2c(C)cc(SC3CCOC3=O)nc2c1", "note": "(centres undefined)", "Potency": "inconclusive: 23.8 µM [inhibitor, single point]"}, {"smiles": "COc1cc(C(=O)O/N=C2/C=CC(=O)C(C)=C2C)cc(OC)c1OC", "Potency": "inconclusive: 9.47 µM [inhibitor, partial curve]"}, {"smiles": "CC(=O)Nc1ccc(NC(=O)CSc2nnc(CNc3ccc(F)cc3)n2CC2CCCO2)cc1", "note": "(centres undefined)", "Potency": "inconclusive: 29.9 µM [inhibitor, single point]"}, {"smiles": "COc1ccc(CNC(=O)COc2ccc(OC)cc2)cc1", "max response, negative = inhibition": "inactive: -1.04%"}, {"smiles": "COc1ccc(Nc2ncccc2C(=O)Nc2ccccc2)cc1", "Potency": "active: 2.67 µM"}, {"smiles": "COc1ccc(C(=O)Nc2sc(C)c(-c3ccccc3)c2C#N)cc1OC", "Potency": "inconclusive: 21.2 µM [inhibitor, partial curve]"}, {"smiles": "O=C(COc1ccc(S(=O)(=O)N2CCCC2)cc1)Nc1ccc2c(c1)OCCO2", "Potency": "inconclusive: 37.7 µM [inhibitor, single point]"}, {"smiles": "N=C1/C(=C\\c2ccc(OC(=O)c3ccco3)cc2)C(=O)N=C2SC(N3CCCCC3)=NN12", "Potency": "inconclusive: 26.7 µM [inhibitor, partial curve]"}, {"smiles": "Cc1ccc(CCSc2ccc(C(C)C)cc2)cn1", "Potency": "inconclusive: 9.47 µM [inhibitor, partial curve]"}, {"smiles": "Cc1ccccc1C(=O)c1cccn1CC(=O)NCC1CCCO1", "note": "(centres undefined)", "max response, negative = inhibition": "inactive: -4.92%"}, {"smiles": "Cc1n[nH]c(=O)nc1NCc1ccc(Cl)cc1", "Potency": "inconclusive: 23.8 µM [inhibitor, partial curve]"}, {"smiles": "N#Cc1c(-c2ccccc2Cl)noc1/C=C/Nc1ccc(C(=O)O)cc1", "Potency": "inconclusive: 26.7 µM [inhibitor, single point]"}, {"smiles": "O=C(NC1CCCCC1)C(c1ccccc1)N1CCc2ccccc21", "note": "(centres undefined)", "max response, negative = inhibition": "inactive: -6.99%"}, {"smiles": "C/C(=N/OC(=O)c1ccc(Br)cc1)c1ccc(C)cc1", "Potency": "inconclusive: 18.9 µM [inhibitor, single point]"}, {"smiles": "CCNc1nc(NCC)n2c(SCC(=O)Nc3ccc(CC)cc3)nnc2n1", "Potency": "active: 6.7 µM"}, {"smiles": "O=C(CSc1nc(-c2ccccc2)c(-c2ccccc2)[nH]1)Nc1ccc2c(c1)OCO2", "Potency": "inconclusive: 42.3 µM [inhibitor, partial curve, poor fit]"}, {"smiles": "O=C(NC1CC1)c1ccc(NC(=O)C2CCC2)cc1", "Potency": "active: 18.9 µM"}, {"smiles": "CC1CC2=C(NC(=S)NC2c2ccc(F)cc2)/C(=C/c2ccc(F)cc2)C1", "note": "(centres undefined)", "Potency": "inconclusive: 21.2 µM [inhibitor, partial curve, poor fit]"}, {"smiles": "CCCCNC(=O)c1ccc(Cn2c(=S)[nH]c3c([nH]c4ccc(OC)cc43)c2=O)cc1", "max response, negative = inhibition": "inactive: -4.24%"}, {"smiles": "C/C(=N\\NS(=O)(=O)c1cccc([N+](=O)[O-])c1)c1cc2ccccc2o1", "Potency": "inconclusive: 26.7 µM [inhibitor, partial curve]"}, {"smiles": "C[C@@H]1CN(Cc2nc(-c3cccs3)no2)C[C@H](C)O1", "max response, negative = inhibition": "inconclusive: -30.1% [inhibitor]"}, {"smiles": "CCCNC(=O)c1ccc2c(c1)ncn2-c1ccccc1OC", "Potency": "inconclusive: 23.8 µM [inhibitor, partial curve]"}, {"smiles": "N#C/C(=C\\c1ccccc1OCc1ccc(C(=O)O)cc1)C(=O)Nc1ccc(O)cc1", "Potency": "inconclusive: 26.7 µM [inhibitor, partial curve]"}, {"smiles": "COc1ccc(C2C(C#N)=C(N)Oc3n[nH]c(C)c32)cc1Cn1nnc2ccccc21", "note": "(centres undefined)", "Potency": "inconclusive: 26.7 µM [inhibitor, partial curve]"}, {"smiles": "COc1ccc(N(CC(=O)Nc2cc(C)ccc2C)S(=O)(=O)c2ccccc2[N+](=O)[O-])c(OC)c1", "Potency": "active: 11.9 µM"}, {"smiles": "COc1cc(/C=N/NC2=NC(C)(C)Cc3ccccc32)cc(OC)c1OC", "Potency": "inconclusive: 21.2 µM [inhibitor, partial curve]"}, {"smiles": "COc1cc(OC)cc(C(=O)NC2CC(C)(C)NC(C)(C)C2)c1", "max response, negative = inhibition": "inactive: -9.33%"}, {"smiles": "COc1ccc(C(=O)/C(C#N)=N/Nc2cccc([N+](=O)[O-])c2)cc1", "Potency": "inconclusive: 26.7 µM [inhibitor, partial curve]"}, {"smiles": "CC(=O)c1cccc(S(=O)(=O)Nc2c(C)nn(C)c2C)c1", "Potency": "inconclusive: 23.8 µM [inhibitor, partial curve]"}, {"smiles": "Cn1c(=O)c(-c2cc(=O)[nH][nH]2)c(O)c2ccccc21", "Potency": "inconclusive: 23.8 µM [inhibitor, single point]"}, {"smiles": "Cc1ccc(-n2c3nc(=O)[nH]c(=O)c-3cc3cc([N+](=O)[O-])ccc32)cc1", "Potency": "active: 16.8 µM"}, {"smiles": "Cc1cccc(NC(=O)C2CCCN(C(=O)Nc3ccc(F)cc3)C2)c1", "note": "(centres undefined)", "max response, negative = inhibition": "inactive: -10.4%"}, {"smiles": "COc1ccc(/C=N/NC(=O)Nc2cccc3nsnc23)cc1", "Potency": "active: 23.8 µM"}, {"smiles": "Cc1cc(C(=O)C(C)Cl)c(C)n1Cc1ccco1", "note": "(centres undefined)", "Potency": "active: 21.2 µM"}, {"smiles": "CCCCc1ccc(NC(=S)NCc2ccc(OC)cc2)cc1", "max response, negative = inhibition": "inactive: -25.9%"}, {"smiles": "Cc1nc(SCC(=O)N(C)Cc2ccco2)c2c(C)c(C)sc2n1", "Potency": "inconclusive: 21.2 µM [inhibitor, single point]"}, {"smiles": "COc1ccc(/C=C/C(=O)Nc2ccc(C34CC5CC(CC(O)(C5)C3)C4)cc2)cc1OC", "Potency": "inconclusive: 8.44 µM [inhibitor, single point]"}, {"smiles": "COC1=C(OC)C(=O)C(Sc2ccc3ccccc3c2)=CC1=O", "Potency": "active: 0.752 µM"}, {"smiles": "Cc1c(Cl)cccc1NC(=S)N=Nc1c(O)n(CN2CCOCC2)c2ccccc12", "max response, negative = inhibition": "inactive: -9.67%"}, {"smiles": "NC(N)=Nc1nc2ccccc2o1", "max response, negative = inhibition": "inactive: -9.33%"}, {"smiles": "Cn1c(=NC(=O)CCl)sc2ccccc21", "Potency": "inconclusive: 18.9 µM [inhibitor, partial curve]"}, {"smiles": "C=CCc1cccc2cc(C(=O)NNC(=O)c3ccncc3)c(=O)oc12", "Potency": "inconclusive: 13.4 µM [inhibitor, partial curve]"}, {"smiles": "Cc1ccc(S(=O)(=O)N(C)C)cc1NC(=S)NCc1ccco1", "max response, negative = inhibition": "inconclusive: -30.2% [inhibitor]"}, {"smiles": "Cc1ccc(-c2csc(NC(=O)CSc3nc(C)cc(=O)[nH]3)n2)cc1", "Potency": "inconclusive: 26.7 µM [inhibitor, partial curve]"}, {"smiles": "Cc1ccc(C2CC(=O)NC(SCC(=O)OCc3ccccc3)=C2C#N)o1", "note": "(centres undefined)", "Potency": "inconclusive: 29.9 µM [inhibitor, partial curve]"}, {"smiles": "Cc1cccc(CC(=O)NCC(=O)NCc2cc(=O)n(C)c(=O)n2C)c1", "Potency": "active: 2.99 µM"}, {"smiles": "CC1(C)CC(=O)C2=C(C1)OC(N)=C(C#N)[C@@H]2c1ccccc1[N+](=O)[O-]", "Potency": "inconclusive: 29.9 µM [inhibitor, single point]"}, {"smiles": "CCOC(=O)c1sc(Nc2nc3cc4c(cc3s2)OCO4)cc1C", "max response, negative = inhibition": "inactive: 0.576%"}, {"smiles": "C#CCOCCOCCOCCNc1nc(N2CCN(C(=O)[C@H](C(C)C)n3cc(CCO)nn3)CC2)nc(N2CCN(C(=O)[C@H]([C@@H](C)CC)n3cc(CCCCN)nn3)CC2)n1", "max response, negative = inhibition": "inactive: -14.5%"}, {"smiles": "CC(=O)c1ccc(N2CCN(C(=O)c3ccco3)CC2)c(F)c1", "Potency": "active: 18.9 µM"}, {"smiles": "O=C(CCS(=O)(=O)c1ccccc1)Nc1ccc2c(c1)OCO2", "max response, negative = inhibition": "inconclusive: -30.2% [inhibitor]"}, {"smiles": "CC(=O)Nc1ccc2c(c1)nc(CN1CCCC1)n2C", "max response, negative = inhibition": "inactive: -4.09%"}, {"smiles": "COc1ccc(OC)c(-n2c(-c3cccc(O)c3)n[nH]c2=S)c1", "Potency": "active: 26.7 µM"}, {"smiles": "COc1ccc(Cl)cc1S(=O)(=O)N1CCN(CC(=O)C(C)(C)C)CC1", "Potency": "inconclusive: 23.8 µM [inhibitor, single point]"}, {"smiles": "COc1ccccc1C(=O)NC(=S)Nc1ccc(N2CCOCC2)c(Cl)c1", "Potency": "inconclusive: 26.7 µM [inhibitor, partial curve]"}, {"smiles": "CC1=C(C(=O)OCc2cc(C)on2)N2C(=O)[C@@H](NC(=O)OCc3cc(C)on3)[C@H]2SC1", "Potency": "inconclusive: 29.9 µM [inhibitor, single point]"}, {"smiles": "CCc1nnc(NS(=O)(=O)c2ccc(N=Cc3c(C)[nH]n(-c4ccc(Cl)cc4)c3=O)cc2)s1", "Potency": "inconclusive: 21.2 µM [inhibitor, single point]"}, {"smiles": "CCc1noc(C)c1C(=O)Nc1sc(C(=O)N(C)C)c(C)c1C#N", "Potency": "inconclusive: 26.7 µM [inhibitor, single point]"}, {"smiles": "CCCOc1ccc(-c2csc(N)n2)cc1[N+](=O)[O-]", "max response, negative = inhibition": "inactive: -5.54%"}, {"smiles": "CCOC(=O)N1CCC(NC(=O)c2cc(C(=O)NCc3ccc(F)cc3)ccc2CO)CC1", "Potency": "inconclusive: 23.8 µM [inhibitor, partial curve]"}, {"smiles": "COCCn1c(=NC(=O)c2cc(Cl)sc2Cl)sc2cc(S(N)(=O)=O)ccc21", "max response, negative = inhibition": "inactive: -4.95%"}, {"smiles": "CCS(=O)(=O)c1ccc2oc(SCC(=O)NC3CCCC(C)C3C)nc2c1", "note": "(centres undefined)", "Potency": "inconclusive: 16.8 µM [inhibitor, partial curve]"}, {"smiles": "CCOC(=O)C(=O)c1c(C)cc2ccccn12", "Potency": "inconclusive: 26.7 µM [inhibitor, partial curve]"}, {"smiles": "O=C(Nc1ccc(NC(=S)NC(=O)C(c2ccccc2)c2ccccc2)cc1)c1ccccc1", "Potency": "inconclusive: 29.9 µM [inhibitor, single point]"}]}]}
